Measured values as given in patent US8431529B2, “Bi-dentate compounds as kinase inhibitors” (Sanford-Burnham Medical Research Institute, priority 2007, dated 2013).
The structures given here were assigned with low confidence; some may be wrong.

The chains behind the UniProt entries cited, without tags or fusion partners.
UniProt P45983, whole entry: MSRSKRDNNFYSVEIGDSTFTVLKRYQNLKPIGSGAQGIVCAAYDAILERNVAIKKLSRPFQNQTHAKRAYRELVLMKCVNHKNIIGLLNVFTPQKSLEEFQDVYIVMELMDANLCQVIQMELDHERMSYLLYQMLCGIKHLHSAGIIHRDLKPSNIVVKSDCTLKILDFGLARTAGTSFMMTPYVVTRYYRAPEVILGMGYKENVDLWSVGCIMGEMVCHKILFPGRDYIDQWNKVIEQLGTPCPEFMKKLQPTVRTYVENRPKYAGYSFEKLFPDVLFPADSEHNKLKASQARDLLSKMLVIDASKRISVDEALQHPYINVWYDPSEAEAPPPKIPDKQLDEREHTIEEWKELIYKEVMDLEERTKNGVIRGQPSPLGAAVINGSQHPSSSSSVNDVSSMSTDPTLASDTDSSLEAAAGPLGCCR
UniProt Q16539, whole entry: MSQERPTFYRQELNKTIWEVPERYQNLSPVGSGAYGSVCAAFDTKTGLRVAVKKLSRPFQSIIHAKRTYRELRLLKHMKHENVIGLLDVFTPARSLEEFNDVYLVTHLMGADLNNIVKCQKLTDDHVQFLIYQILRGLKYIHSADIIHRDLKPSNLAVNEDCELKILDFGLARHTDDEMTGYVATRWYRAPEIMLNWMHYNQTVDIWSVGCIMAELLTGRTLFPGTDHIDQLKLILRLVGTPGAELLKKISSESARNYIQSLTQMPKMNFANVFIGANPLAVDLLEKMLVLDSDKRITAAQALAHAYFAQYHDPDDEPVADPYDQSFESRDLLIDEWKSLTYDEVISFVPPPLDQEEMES

Assays:
JNK1 [1] = molecular target: T1, JNK1 (Homo sapiens, UniProt P45983); experiment: DELFIA assay: displacement of biotinylated pepJIP1 (L-JIP1 peptide) from GST-JNK1; type: binding; settings: read-out: Delfia Assay (Displacement of L-JIP1 peptide from JNK) IC50; Table 1
JNK1 [2] = molecular target: T1, JNK1; experiment: LanthaScreen TR-FRET in vitro kinase activity assay, JNK1 phosphorylation of ATF2; type: biochemical; settings: read-out: Kinase Activity Assay (JNK) IC50; Table 1
p38α = p38α (Homo sapiens, UniProt Q16539); experiment: LanthaScreen kinase activity assay with ATF2 substrate versus p38α; type: biochemical; settings: read-out: Kinase Activity Assay (p38[…]) IC50; Table 1
Protocol: In order to confer further favorable pharmacological properties to this compound for in vivo studies, analogous to the clinical candidate D-JNK1^15, an all-D retro-inverso version of BI77B8 fused to the cell penetrating HIV-TAT sequence was prepared. […] LanthaScreen™ In vitro Kinase Assay. LanthaScreen™ assay platform from Invitrogen was utilized. The time-resolved fluorescence resonance energy transfer assay (TR-FRET) was performed in 384 well plates. […] After this time, the terbium labeled antibody and EDTA were added into each well. After an additional hour incubation, the signal was measured at 520/495 nm emission ratio on a BMG Pherastar fluorescence plate reader.

IC50 (JNK1 [1]): 2 nM
IC50 (JNK1 [2]): 0.7 nM
IC50 (p38α): 190 nM
Structure (SMILES): CC(C)C[C@H](NC(=O)[C@H](CC(N)=O)NC(=O)[C@H](CC(C)C)NC(=O)[C@@H](NC(=O)[C@@H](NC(=O)[C@@H]1CCCN1C(=O)[C@@H](N)CCCNC(=N)N)[C@@H](C)O)[C@@H](C)O)C(=O)NCC(=O)NCC(=O)NCCCNC(=O)c1ccc(-c2n[nH]c3ccccc23)cc1
